Measured values taken from the supplement of paper PMC4604168 (melanoma cell lines).
The list shows a part of the results. Single values are uncertain, as repeats are few or missing.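 Imaging used 1,536-well plates; nuclei positive for cleaved PARP by antibody were divided by total DNA-stained nuclei to yield the apoptosis fraction. Doses for screening kept most cells viable, and cell lines differ markedly in resting and induced cleaved-PARP levels.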

Key:
Assay in all cases: cleaved PARP positive nuclei fraction relative to DMSO control; melanoma cells; higher = more apoptosis
Conditions in all cases: library dose: low library concentration; 72 h
COLO792 = tested on: COLO792
COLO800 = tested on: COLO800
COLO829 = tested on: COLO829
G361 = tested on: G361
IPC-298 = tested on: IPC-298
IST-MEL1 = tested on: IST-MEL1
LB2518-MEL = tested on: LB2518-MEL
LOXIMVI = tested on: LOXIMVI

| Structure (SMILES) | cleaved PARP positive nuclei fraction (COLO792) [%] | cleaved PARP positive nuclei fraction (COLO800) [%] | cleaved PARP positive nuclei fraction (COLO829) [%] | cleaved PARP positive nuclei fraction (G361) [%] | cleaved PARP positive nuclei fraction (IPC-298) [%] | cleaved PARP positive nuclei fraction (IST-MEL1) [%] | cleaved PARP positive nuclei fraction (LB2518-MEL) [%] | cleaved PARP positive nuclei fraction (LOXIMVI) [%] |
| --- | --- | --- | --- | --- | --- | --- | --- | --- |
| CC(=O)c1c(C)c2cnc(Nc3ccc(N4CCNCC4)cn3)nc2n(C2CCCC2)c1=O [palbociclib] + Cc1cc(SCc2sc(-c3ccc(C(F)(F)F)c(F)c3)nc2C)ccc1OCC(=O)O [GW0742] (first compound 0.04 µM, partner dose 2 µM) | 106 | 168 | 70.4 | 83.4 | 104 | 143 | 94.8 | 18 |
| NC(=O)c1ccc(N(C(N)=O)c2c(F)cccc2F)nc1-c1ccc(F)cc1F + O=C(Oc1ccc([N+](=O)[O-])cc1)N1CCC(C(O)(c2ccc3c(c2)OCO3)c2ccc3c(c2)OCO3)CC1 [JZL184] (first compound 0.4 µM, partner dose 1 µM) | 87.1 | 41 | 109 | 112 | 186 | 201 | 152 | 37.7 |
| Cc1cc(Nc2cc(N3CCN(C)CC3)nc(/C=C/c3ccccc3)n2)n[nH]1 + C/C(O)=C(\C#N)C(=O)Nc1cc(Br)ccc1Br [LFM-A13] (first compound 0.04 µM, partner dose 2 µM) | 129 | 60.2 | 139 | 65.1 | 89.9 | 158 | 86.2 | 68.4 |
| CS(=O)(=O)c1ccc(C(=O)Nc2ccc(Cl)c(-c3ccccn3)c2)c(Cl)c1 [vismodegib] + Cc1cc(SCc2sc(-c3ccc(C(F)(F)F)c(F)c3)nc2C)ccc1OCC(=O)O [GW0742] (first compound 1 µM, partner dose 2 µM) | 95 | 106 | 163 | 126 | 176 | 183 | 33.6 | 90.1 |
| Cn1cc(C2=C(c3cn(C4CCN(Cc5ccccn5)CC4)c4ccccc34)C(=O)NC2=O)c2ccccc21 [Enzastaurin] + CCCCCCCCCCCC1=C(O)C(=O)C=C(O)C1=O [Embelin] (first compound 0.8 µM, partner dose 1.2 µM) | 115 | 41.1 | 76.5 | 40 | 66.4 | 147 | 31.6 | 177 |
| CNC(=O)c1cc(Oc2ccc(NC(=O)Nc3ccc(Cl)c(C(F)(F)F)c3)cc2)ccn1 [sorafenib] + C/C(O)=C(\C#N)C(=O)Nc1cc(Br)ccc1Br [LFM-A13] (first compound 0.4 µM, partner dose 2 µM) | 48.8 | 146 | 52.7 | 128 | 89.4 | 108 | 31.2 | 41.3 |
| O=C(/C=C/c1cccnc1)NCCCCC1CCN(C(=O)c2ccccc2)CC1 + C/C(O)=C(\C#N)C(=O)Nc1cc(Br)ccc1Br [LFM-A13] (first compound 0.01 µM, partner dose 2 µM) | 207 | 202 | 258 | 5060 | 512 | 226 | 93.8 | 71.8 |
| Nc1ccn([C@@H]2O[C@H](CO)[C@@H](O)C2(F)F)c(=O)n1 [gemcitabine] + C/C(O)=C(\C#N)C(=O)Nc1cc(Br)ccc1Br [LFM-A13] (first compound 0.0004 µM, partner dose 2 µM) | 123 | 226 | 248 | 190 | 158 | 118 | 39.5 | 69.1 |
| C[C@]12O[C@H](C[C@]1(O)CO)n1c3ccccc3c3c4c(c5c6ccccc6n2c5c31)CNC4=O [Lestaurtinib] + CC(C)CCN1c2nc(Nc3cc(F)c(O)c(F)c3)ncc2N(C)C(=O)C1C [BID1870] (first compound 0.004 µM, partner dose 0.2 µM) | 102 | 81.7 | 90 | 69.5 | 54.2 | 257 | 74.7 | 187 |
| CS(=O)(=O)CCNCc1ccc(-c2ccc3ncnc(Nc4ccc(OCc5cccc(F)c5)c(Cl)c4)c3c2)o1 [lapatinib] + O=C(Oc1ccc([N+](=O)[O-])cc1)N1CCC(C(O)(c2ccc3c(c2)OCO3)c2ccc3c(c2)OCO3)CC1 [JZL184] (first compound 0.8 µM, partner dose 1 µM) | 55.2 | 131 | 74.2 | 46.2 | 60.8 | 116 | 32.2 | 16.8 |
| C[C@]12O[C@H](C[C@]1(O)CO)n1c3ccccc3c3c4c(c5c6ccccc6n2c5c31)CNC4=O [Lestaurtinib] + COc1cc2ncnc(Nc3ccc(Oc4ccccc4)cc3)c2cc1OC [SrcI1] (first compound 0.004 µM, partner dose 2 µM) | 87.8 | 39.8 | 88.9 | 185 | 265 | 71.7 | 90.4 | 159 |
| N.N.[Cl][Pt][Cl] [cisplatin] + COc1ccc(COc2ccc(Cc3cnc(N)nc3N)cc2OC)cc1 [GW2580] (first compound 1.6 µM, partner dose 1 µM) | 135 | 61.1 | 97.6 | 144 | 95.4 | 142 | 64.6 | 78.8 |

An excerpt of the results above, for reference:

| Structure (SMILES) | cleaved PARP positive nuclei fraction (COLO792) [%] | cleaved PARP positive nuclei fraction (COLO800) [%] | cleaved PARP positive nuclei fraction (COLO829) [%] | cleaved PARP positive nuclei fraction (G361) [%] | cleaved PARP positive nuclei fraction (IPC-298) [%] | cleaved PARP positive nuclei fraction (IST-MEL1) [%] | cleaved PARP positive nuclei fraction (LB2518-MEL) [%] | cleaved PARP positive nuclei fraction (LOXIMVI) [%] |
| --- | --- | --- | --- | --- | --- | --- | --- | --- |
| Nc1ccn([C@@H]2O[C@H](CO)[C@@H](O)C2(F)F)c(=O)n1 [gemcitabine] + C/C(O)=C(\C#N)C(=O)Nc1cc(Br)ccc1Br [LFM-A13] (first compound 0.0004 µM, partner dose 2 µM) | 123 | 226 | 248 | 190 | 158 | 118 | 39.5 | 69.1 |
| C[C@]12O[C@H](C[C@]1(O)CO)n1c3ccccc3c3c4c(c5c6ccccc6n2c5c31)CNC4=O [Lestaurtinib] + CC(C)CCN1c2nc(Nc3cc(F)c(O)c(F)c3)ncc2N(C)C(=O)C1C [BID1870] (first compound 0.004 µM, partner dose 0.2 µM) | 102 | 81.7 | 90 | 69.5 | 54.2 | 257 | 74.7 | 187 |
